1 molecule from publication PMC10896983 can be followed below.

Results are given in words; binding and its absence hold for the method and conditions named. Binding seen in cells or lysates may run through a third protein. Binding can be weak; no strength is given.

In the assay the target is murine iRhom2 N-terminal deletion nd197 (HA tag) (murine). The assay is described as follows: co-IP; HEK293 stably expressing HA-tagged iRhom2 variants as bait; cleared lysate on anti-HA magnetic beads for 90 min, five washes with lysis buffer (50 mM Tris, 2 mM CaCl2, 137 mM NaCl, 2 mM EDTA, 10 mM 1,10-phenanthroline, pH 7.5); endogenous prey by immunoblot and densitometry; in some panels cells treated with NH4Cl or bafilomycin for 8 h or 16 h. (A western blot detects proteins with antibodies after separation by electrophoresis.)

B1: FRMD8 (endogenous, HEK293) (protein, UniProt Q9BZ67 1-464)
chain: MDGTEGSAGQPGPAERSHRSSVSSVGARAADVLVYLADDTVVPLAVENLPSLSAHELHRAVREVLQLPDIALDVFALWLVSPLLEVQLKPKHQPYKLGRQWPELLLRFTSAPDDDVAMDEPFLQFRRNVFFPKRRELQIHDEEVLRLLYEEAKGNVLAARYPCDVEDCEALGALVCRVQLGPYQPGRPAACDLREKLDSFLPAHLCKRGQSLFAALRGRGARAGPGEQGLLNAYRQVQEVSSDGGCEAALGTHYRAYLLKCHELPFYGCAFFHGEVDKPAQGFLHRGGRKPVSVAISLEGVHVIDSREKHVLLGLRFQELSWDHTSPEEEEPILWLEFDGDSEGTPVNKLLKIYSKQAELMSSLIEYCIELSQAAEPAGPQDSATGSPSDPSSSLAPVQRPKLRRQGSVVSSRIQHLSTIDYVEDGKGIRRVKPKRTTSFFSRQLSLGQGSYTVVQPGDSLEQG
With B1, the binding entry was “binds”.
